Reference: article PMC3084264
These are yes or no findings as the source states them, for the method shown. Binding seen in cells or lysates may run through a third protein.

Amino acid sequences for entries named in this document (tags omitted).
UniProt Q56242: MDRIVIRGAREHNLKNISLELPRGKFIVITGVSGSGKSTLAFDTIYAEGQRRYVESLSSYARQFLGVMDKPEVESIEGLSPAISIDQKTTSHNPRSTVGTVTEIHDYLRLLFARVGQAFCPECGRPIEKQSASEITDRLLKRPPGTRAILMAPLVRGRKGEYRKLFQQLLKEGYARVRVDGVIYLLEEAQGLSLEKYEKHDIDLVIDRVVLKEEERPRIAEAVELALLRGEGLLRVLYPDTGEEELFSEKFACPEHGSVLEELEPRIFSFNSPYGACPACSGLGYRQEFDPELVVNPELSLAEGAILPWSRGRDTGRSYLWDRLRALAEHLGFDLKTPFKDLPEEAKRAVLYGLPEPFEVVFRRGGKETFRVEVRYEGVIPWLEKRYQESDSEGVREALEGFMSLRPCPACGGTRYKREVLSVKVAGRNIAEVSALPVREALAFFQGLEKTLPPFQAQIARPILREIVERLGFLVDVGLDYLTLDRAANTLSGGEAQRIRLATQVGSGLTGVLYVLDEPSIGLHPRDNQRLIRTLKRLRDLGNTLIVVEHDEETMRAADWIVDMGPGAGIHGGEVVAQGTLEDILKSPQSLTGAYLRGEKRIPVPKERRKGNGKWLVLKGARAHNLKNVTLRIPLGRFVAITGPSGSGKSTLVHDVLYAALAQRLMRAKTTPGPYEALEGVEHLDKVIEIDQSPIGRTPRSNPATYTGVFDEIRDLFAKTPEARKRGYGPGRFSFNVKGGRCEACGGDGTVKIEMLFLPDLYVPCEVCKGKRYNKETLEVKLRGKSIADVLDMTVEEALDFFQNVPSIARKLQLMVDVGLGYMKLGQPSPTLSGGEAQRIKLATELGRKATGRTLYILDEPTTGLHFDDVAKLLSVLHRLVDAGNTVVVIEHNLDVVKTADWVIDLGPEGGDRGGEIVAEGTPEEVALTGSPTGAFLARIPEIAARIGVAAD

Target: T. thermophilus UvrA, the nucleotide-excision repair enzyme (endogenous) (Thermus thermophilus HB8 (endogenous in T. thermophilus HB8 cells)) (UniProt Q56242)
Assay: co-IP; endogenous proteins of T. thermophilus HB8 lysate (50 mM Tris-HCl pH 7.5, 30 mM NaCl) treated with DNase I 0.5 mg/ml, 37°C 30 min; polyclonal rabbit antibody on Dynabeads-Protein A; Western blot

B1: Thermus thermophilus HB8 MutS2 (endogenous) (protein, UniProt Q5SHT5 1-744)
chain: MRDVLEVLEFPRVRALLAERAKTPLGRELALALAPLPREEAEKRHELTGEALSYPYALPEAGTLREAYGRALAGARLSGPELLKAAKALEEAMALKEELLPLKNALSQVAEGIGDHTPFLERVRKALDEEGAVKDEASPRLAQIRRELRPLRQQILDRLYALMDRHREAFQDRFVTLRRERYCVPVRAGMAQKVPGILLDESESGATLFIEPFSVVKLNNRLQALRLKEEEEVNRILRDLSERLAKDEGVPKTLEALGLLDLVQAQAALARDLGLSRPAFGERYELYRAFHPLIPDAVRNSFALDEKNRILLISGPNMGGKTALLKTLGLAVLMAQSGLFVAAEKALLAWPDRVYADIGDEQSLQENLSTFAGHLRRLREMLEEATSHSLVLIDELGSGTDPEEGAALSQAILEALLERGVKGMVTTHLSPLKAFAQGREGIQNASMRFDLEALRPTYELVLGVPGRSYALAIARRLALPEEVLKRAEALLPEGGRLEALLERLEAERLALEAERERLRRELSQVERLRKALAEREARFEEERAERLKALEEEVRAELLKVEAELKALKEKARTEGKRDALRELMALRERYAKKAPPPPPPPGLAPGVLVEVPSLGKRGRVVELRGEEVLVQVGPLKMSLKPQEVKPLPEAEPGKPLLAKPRREVKEVDLRGLTVAEALLEVDQALEEARALGLSTLRLLHGKGTGALRQAIREALRRDKRVESFADAPPGEGGHGVTVVALRP
  binding: no binding
